Laboratory results: publication PMC5758779
These are yes or no findings as the source states them, for the method shown. In cells and extracts the contact can be indirect. Some results given as binding are weak or reduced against the parent protein; the word gives no strength. For part of these data: Where a sequence is shown, tags or fusion partners need not be part of it. Values belong to the molecule of their own block, whether it stands above or below them.

By UniProt entry, the sequences of proteins in these tests, tags left out.
UniProt Q00444: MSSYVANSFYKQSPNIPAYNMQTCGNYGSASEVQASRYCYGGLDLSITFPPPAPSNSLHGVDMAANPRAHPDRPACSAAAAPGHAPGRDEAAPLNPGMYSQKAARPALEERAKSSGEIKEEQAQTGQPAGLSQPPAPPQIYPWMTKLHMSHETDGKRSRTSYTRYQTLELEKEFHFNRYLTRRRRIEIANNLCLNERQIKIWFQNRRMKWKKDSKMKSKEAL
UniProt Q13547: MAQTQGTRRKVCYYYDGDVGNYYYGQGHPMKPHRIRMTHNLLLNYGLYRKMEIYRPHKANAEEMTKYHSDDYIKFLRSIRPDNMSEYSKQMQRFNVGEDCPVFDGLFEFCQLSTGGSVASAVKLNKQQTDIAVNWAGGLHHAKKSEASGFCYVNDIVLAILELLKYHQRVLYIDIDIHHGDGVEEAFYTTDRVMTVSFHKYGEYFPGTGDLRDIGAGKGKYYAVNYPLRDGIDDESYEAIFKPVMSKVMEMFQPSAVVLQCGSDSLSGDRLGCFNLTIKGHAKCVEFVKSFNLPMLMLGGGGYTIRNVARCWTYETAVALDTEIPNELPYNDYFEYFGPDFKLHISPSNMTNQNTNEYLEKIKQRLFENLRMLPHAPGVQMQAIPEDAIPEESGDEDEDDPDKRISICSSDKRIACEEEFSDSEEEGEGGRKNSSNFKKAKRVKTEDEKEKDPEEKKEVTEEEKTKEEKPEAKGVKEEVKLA
UniProt O15379: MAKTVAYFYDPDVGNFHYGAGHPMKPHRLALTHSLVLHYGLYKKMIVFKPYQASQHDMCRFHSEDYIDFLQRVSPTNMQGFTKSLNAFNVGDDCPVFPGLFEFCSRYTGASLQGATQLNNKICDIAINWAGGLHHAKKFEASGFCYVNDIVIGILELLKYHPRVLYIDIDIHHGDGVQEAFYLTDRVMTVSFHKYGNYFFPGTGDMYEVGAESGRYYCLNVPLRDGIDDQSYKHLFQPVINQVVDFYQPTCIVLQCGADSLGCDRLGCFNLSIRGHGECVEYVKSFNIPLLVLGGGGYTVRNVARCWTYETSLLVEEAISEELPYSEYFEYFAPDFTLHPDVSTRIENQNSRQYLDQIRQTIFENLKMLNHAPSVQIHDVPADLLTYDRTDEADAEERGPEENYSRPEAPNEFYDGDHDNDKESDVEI

Experiments:
V5-tagged PBX4 (human) = biological target: T1, V5-tagged PBX4 (human) (UniProt Q9BYU1); assay: co-IP; immunoprecipitation of V5-tagged PBX4, Flag-tagged HDAC1, HDAC2 or HDAC3 detected; transiently co-expressed in HeLa cells (Supplementary Fig. 8c, 8d)
T1 sequence: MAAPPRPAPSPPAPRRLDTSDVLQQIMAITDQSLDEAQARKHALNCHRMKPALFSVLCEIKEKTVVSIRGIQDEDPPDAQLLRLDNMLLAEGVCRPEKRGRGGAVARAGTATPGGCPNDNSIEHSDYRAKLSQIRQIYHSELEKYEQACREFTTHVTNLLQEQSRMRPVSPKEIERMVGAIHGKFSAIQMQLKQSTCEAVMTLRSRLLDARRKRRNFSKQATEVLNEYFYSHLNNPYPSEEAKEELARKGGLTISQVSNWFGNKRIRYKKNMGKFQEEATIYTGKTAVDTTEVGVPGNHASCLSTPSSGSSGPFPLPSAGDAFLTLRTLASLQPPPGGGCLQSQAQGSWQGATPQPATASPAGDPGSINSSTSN

V5-tagged HoxC5 (human) [1] = biological target: V5-tagged HoxC5 (human) (UniProt Q00444); assay: co-IP; immunoprecipitation of V5-tagged HoxC5, Flag-tagged HDAC1, HDAC2 or HDAC3 detected; transiently co-expressed in HeLa cells (Supplementary Fig. 8b)
V5-tagged HoxC5 (human) [2] = biological target: V5-tagged HoxC5 (human) (UniProt Q00444); assay: co-IP; immunoprecipitation of V5-tagged HoxC5, Flag-tagged Pbx1-4 detected; HeLa cells
[3] = biological target: recombinant 6xHis-tagged HoxC5 (human) (UniProt Q00444); assay: pull-down; in vitro binding assay: purified recombinant 6xHis-tagged HoxC5 from bacteria pulls down in vitro translated, 35S-Methionine labeled Pbx proteins; only the target purified
[4] = biological target: Flag-tagged HoxC5 (human) (UniProt Q00444); assay: co-IP; immunoprecipitation of Flag-tagged HoxC5, V5-tagged Meis1-3 detected; HeLa cells

binding (V5-tagged PBX4 (human)): binds
Molecule: Flag-tagged HDAC1 (from UniProt Q13547 1-482) (enzyme)

binding (V5-tagged HoxC5 (human) [1]): binds
binding (V5-tagged PBX4 (human)): binds
Molecule: Flag-tagged HDAC3 (from UniProt O15379 1-428) (enzyme)

binding (V5-tagged HoxC5 (human) [2]): no binding
B1: Flag-tagged Pbx2 (protein, UniProt P40425 1-430)
chain: MDERLLGPPPPGGGRGGLGLVSGEPGGPGEPPGGGDPGGGSGGVPGGRGKQDIGDILQQIMTITDQSLDEAQAKKHALNCHRMKPALFSVLCEIKEKTGLSIRSSQEEEPVDPQLMRLDNMLLAEGVAGPEKGGGSAAAAAAAAASGGGVSPDNSIEHSDYRSKLAQIRHIYHSELEKYEQACNEFTTHVMNLLREQSRTRPVAPKEMERMVSIIHRKFSAIQMQLKQSTCEAVMILRSRFLDARRKRRNFSKQATEVLNEYFYSHLSNPYPSEEAKEELAKKCGITVSQVSNWFGNKRIRYKKNIGKFQEEANIYAVKTAVSVTQGGHSRTSSPTPPSSAGSGGSFNLSGSGDMFLGMPGLNGDSYSASQVESLRHSMGPGGYGDNLGGGQMYSPREMRANGSWQEAVTPSSVTSPTEGPGSVHSDTSN

binding [3]: no binding
B2: in vitro translated and 35S-Methionine labeled Pbx2 (protein, UniProt P40425 1-430)
chain: B1 chain
modifications: 35S-Methionine labeled

binding (V5-tagged HoxC5 (human) [2]): no binding
B3: Flag-tagged Pbx3 (protein, UniProt P40426 1-434)
chain: MDDQSRMLQTLAGVNLAGHSVQGGMALPPPPHGHEGADGDGRKQDIGDILHQIMTITDQSLDEAQAKKHALNCHRMKPALFSVLCEIKEKTGLSIRGAQEEDPPDPQLMRLDNMLLAEGVSGPEKGGGSAAAAAAAAASGGSSDNSIEHSDYRAKLTQIRQIYHTELEKYEQACNEFTTHVMNLLREQSRTRPISPKEIERMVGIIHRKFSSIQMQLKQSTCEAVMILRSRFLDARRKRRNFSKQATEILNEYFYSHLSNPYPSEEAKEELAKKCSITVSQVSNWFGNKRIRYKKNIGKFQEEANLYAAKTAVTAAHAVAAAVQNNQTNSPTTPNSGSSGSFNLPNSGDMFMNMQSLNGDSYQGSQVGANVQSQVDTLRHVINQTGGYSDGLGGNSLYSPHNLNANGGWQDATTPSSVTSPTEGPGSVHSDTSN

binding [3]: no binding
B4: in vitro translated and 35S-Methionine labeled Pbx3 (protein, UniProt P40426 1-434)
chain: B3 chain
modifications: 35S-Methionine labeled

binding [4]: binds
B5: V5-tagged Meis3 (protein, UniProt Q99687 1-375)
chain: MARRYDELPHYPGIVDGPAALASFPETVPAVPGPYGPHRPPQPLPPGLDSDGLKREKDEIYGHPLFPLLALVFEKCELATCSPRDGAGAGLGTPPGGDVCSSDSFNEDIAAFAKQVRSERPLFSSNPELDNLMIQAIQVLRFHLLELEKVHDLCDNFCHRYITCLKGKMPIDLVIEDRDGGCREDFEDYPASCPSLPDQNNMWIRDHEDSGSVHLGTPGPSSGGLASQSGDNSSDQGDGLDTSVASPSSGGEDEDLDQERRRNKKRGIFPKVATNIMRAWLFQHLSHPYPSEEQKKQLAQDTGLTILQVNNWFINARRRIVQPMIDQSNRTGQGAAFSPEGQPIGGYTETQPHVAVRPPGSVGMSLNLEGEWHYL

binding (V5-tagged HoxC5 (human) [2]): binds
B6: Flag-tagged Pbx4 (protein, UniProt Q9BYU1 1-374)
chain: T1 sequence

binding [3]: binds
B7: in vitro translated and 35S-Methionine labeled Pbx4 (protein, UniProt Q9BYU1 1-374)
chain: T1 sequence
modifications: 35S-Methionine labeled

binding [4]: no binding
B8: V5-tagged Meis2 (protein, UniProt O14770 1-477)
chain: MAQRYDELPHYGGMDGVGVPASMYGDPHAPRPIPPVHHLNHGPPLHATQHYGAHAPHPNVMPASMGSAVNDALKRDKDAIYGHPLFPLLALVFEKCELATCTPREPGVAGGDVCSSDSFNEDIAVFAKQVRAEKPLFSSNPELDNLMIQAIQVLRFHLLELEKVHELCDNFCHRYISCLKGKMPIDLVIDERDGSSKSDHEELSGSSTNLADHNPSSWRDHDDATSTHSAGTPGPSSGGHASQSGDNSSEQGDGLDNSVASPGTGDDDDPDKDKKRQKKRGIFPKVATNIMRAWLFQHLTHPYPSEEQKKQLAQDTGLTILQVNNWFINARRRIVQPMIDQSNRAGFLLDPSVSQGAAYSPEGQPMGSFVLDGQQHMGIRPAGLQSMPGDYVSQGGPMGMSMAQPSYTPPQMTPHPTQLRHGPPMHSYLPSHPHHPAMMMHGGPPTHPGMTMSAQSPTMLNSVDPNVGGQVMDIHAQ

binding [4]: no binding
B9: V5-tagged Meis1 (protein, UniProt O00470 1-390)
chain: MAQRYDDLPHYGGMDGVGIPSTMYGDPHAARSMQPVHHLNHGPPLHSHQYPHTAHTNAMAPSMGSSVNDALKRDKDAIYGHPLFPLLALIFEKCELATCTPREPGVAGGDVCSSESFNEDIAVFAKQIRAEKPLFSSNPELDNLMIQAIQVLRFHLLELEKVHELCDNFCHRYISCLKGKMPIDLVIDDREGGSKSDSEDITRSANLTDQPSWNRDHDDTASTRSGGTPGPSSGGHTSHSGDNSSEQGDGLDNSVASPSTGDDDDPDKDKKRHKKRGIFPKVATNIMRAWLFQHLTHPYPSEEQKKQLAQDTGLTILQVNNWFINARRRIVQPMIDQSNRAVSQGTPYNPDGQPMGGFVMDGQQHMGIRAPGPMSGMGMNMGMEGQWHYM
